Source: patent US20220227882A1 (TRUSTEES OF TUFTS COLLEGE, published 2022)
Results are given in words; binding and its absence hold for the method and conditions named. Some binding calls cover weakened binding; strength is not graded here.

Key:
[1] = target: T1, Full-length human ADAM8 on cells (HEK293-ADAM8 stable or transfected cells; also endogenous ADAM8 of breast cell lines and PDX tumors) (human) (UniProt P78325); test: FACS, HEK293 cells with EV, full-length or remnant ADAM8; FACS, HEK293 cells stably expressing full-length ADAM8 (FIG. 33B)
T1 sequence: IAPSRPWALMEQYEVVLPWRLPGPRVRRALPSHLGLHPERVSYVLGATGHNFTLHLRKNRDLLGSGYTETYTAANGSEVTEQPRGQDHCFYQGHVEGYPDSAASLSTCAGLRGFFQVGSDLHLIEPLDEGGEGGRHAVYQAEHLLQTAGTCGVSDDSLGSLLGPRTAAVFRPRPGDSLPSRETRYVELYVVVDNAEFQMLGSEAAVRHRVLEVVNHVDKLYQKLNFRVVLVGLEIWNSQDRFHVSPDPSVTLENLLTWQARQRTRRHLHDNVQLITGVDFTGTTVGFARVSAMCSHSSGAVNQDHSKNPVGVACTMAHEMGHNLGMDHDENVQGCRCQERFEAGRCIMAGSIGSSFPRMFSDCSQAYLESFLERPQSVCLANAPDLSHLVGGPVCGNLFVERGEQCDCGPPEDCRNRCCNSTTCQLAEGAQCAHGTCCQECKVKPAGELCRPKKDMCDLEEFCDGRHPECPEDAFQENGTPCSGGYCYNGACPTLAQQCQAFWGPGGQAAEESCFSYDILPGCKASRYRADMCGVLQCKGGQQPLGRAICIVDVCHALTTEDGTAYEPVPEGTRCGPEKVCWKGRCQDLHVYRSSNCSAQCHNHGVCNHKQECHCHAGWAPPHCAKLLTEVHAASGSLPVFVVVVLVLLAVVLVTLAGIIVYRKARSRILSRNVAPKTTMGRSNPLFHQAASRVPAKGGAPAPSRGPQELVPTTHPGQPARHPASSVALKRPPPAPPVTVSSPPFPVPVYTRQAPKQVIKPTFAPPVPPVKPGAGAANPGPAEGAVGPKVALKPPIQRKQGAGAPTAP

[2] = target: T1, Full-length human ADAM8 on cells (HEK293-ADAM8 stable or transfected cells; also endogenous ADAM8 of breast cell lines and PDX tumors) (human); test: FACS, unfixed and paraformaldehyde-fixed HEK293-ADAM8 cells; FACS, HEK-A8-2D cells, native/unfixed and fixed (FIG. 41A)
[3] = target: T1, Full-length human ADAM8 on cells (HEK293-ADAM8 stable or transfected cells; also endogenous ADAM8 of breast cell lines and PDX tumors) (human); test: IHC, control cell line microarray, ADP-optimized conditions, 1:100
[4] = target: T1, Full-length human ADAM8 on cells (HEK293-ADAM8 stable or transfected cells; also endogenous ADAM8 of breast cell lines and PDX tumors) (human); test: IHC on breast control cell line microarray, ADP-optimized conditions, 1:100; IHC, newly optimized ADP-specific conditions; staining barely detectable
[5] = target: T2, Remnant form of human ADAM8 on HEK293 cells (HEK293-remnant-ADAM8) (human) (UniProt P78325); test: FACS, HEK293 cells with remnant ADAM8
T2 sequence: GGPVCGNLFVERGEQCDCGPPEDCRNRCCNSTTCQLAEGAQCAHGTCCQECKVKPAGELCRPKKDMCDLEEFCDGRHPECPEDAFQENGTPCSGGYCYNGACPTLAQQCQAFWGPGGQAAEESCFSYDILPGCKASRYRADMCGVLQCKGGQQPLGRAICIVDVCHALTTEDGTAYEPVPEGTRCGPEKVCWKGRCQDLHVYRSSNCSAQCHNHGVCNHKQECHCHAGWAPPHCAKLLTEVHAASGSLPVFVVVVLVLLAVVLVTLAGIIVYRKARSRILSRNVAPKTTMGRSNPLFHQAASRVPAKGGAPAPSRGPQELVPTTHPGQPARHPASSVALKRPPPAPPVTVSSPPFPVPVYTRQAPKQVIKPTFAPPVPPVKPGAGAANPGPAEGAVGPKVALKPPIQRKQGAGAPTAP

[6] = target: T1, Full-length human ADAM8 on cells (HEK293-ADAM8 stable or transfected cells; also endogenous ADAM8 of breast cell lines and PDX tumors) (human); test: FACS, stable HEK293 cells
[7] = target: T2, Remnant form of human ADAM8 on HEK293 cells (HEK293-remnant-ADAM8) (human); test: FACS, stable HEK293 cells
[8] = target: T3, Recombinant human ADAM8 (rHuADAM8) ectodomain protein (aa 17-497), ACRO Biosystems AD8-H5223 (human) (UniProt P78325); test: ELISA, recombinant ADAM proteins
T3 sequence: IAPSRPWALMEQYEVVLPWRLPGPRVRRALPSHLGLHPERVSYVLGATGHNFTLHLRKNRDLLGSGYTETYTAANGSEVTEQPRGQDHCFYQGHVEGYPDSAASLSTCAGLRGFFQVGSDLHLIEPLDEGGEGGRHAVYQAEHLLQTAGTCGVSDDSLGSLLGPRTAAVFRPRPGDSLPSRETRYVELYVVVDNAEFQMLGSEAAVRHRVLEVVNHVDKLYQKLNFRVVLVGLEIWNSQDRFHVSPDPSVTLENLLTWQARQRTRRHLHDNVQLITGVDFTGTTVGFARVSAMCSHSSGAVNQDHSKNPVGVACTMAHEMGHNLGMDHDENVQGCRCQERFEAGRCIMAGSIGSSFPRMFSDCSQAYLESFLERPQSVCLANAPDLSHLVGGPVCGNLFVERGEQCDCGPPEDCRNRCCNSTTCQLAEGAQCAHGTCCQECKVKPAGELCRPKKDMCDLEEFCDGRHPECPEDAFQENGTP

[9] = target: T1, Full-length human ADAM8 on cells (HEK293-ADAM8 stable or transfected cells; also endogenous ADAM8 of breast cell lines and PDX tumors) (human); test: FACS, HEK293-ADAM8 cells, unfixed and paraformaldehyde-fixed
[10] = target: T2, Remnant form of human ADAM8 on HEK293 cells (HEK293-remnant-ADAM8) (human); test: FACS, HEK293 cells with remnant ADAM8, 2 µg antibody

Measured: binding

B1: ADP3 (antibody, IgG1, V domains shown)
VH: EVKLEESGGGLVQPGGSMKLSCAASGFTFSDAWMDWVRQSPEKGLEWVAEIRGKVNNLATYYVESVKGRFTISRDDSKSSVYLQMNSLRAEDTGIYYCLGRYDATYAMDYWGQGTSVTVSS
VL: DVVMTQTPLSLPVSLGDQASISCRSSQSLVHSDGNTYLHWYLQKPGQSPKLLIYKLSNRFSGVPDRFSGSGSGTDFTLKISRVEAEDLGVYFCSQSTHVPWTFGGGTKLEIK
not listed: [10]
binds: all other assays above

B2: ADP2 (antibody, V domains shown)
VH: EVKLVESGGGLVQPGGSLSLSCAASGFSFPDYYMSWVRQPPGKALEWLGFIRDSANGYTTEYIASVKGRFTFSRDNSQSILYLQMNALRAEDSATYYCARYSRYYGMDYWGQGTSVTVSS
VL: SIVMTQTPKILLVSAGDRVTITCKASQTVNYDVAWYQQKPGQSPKPVIYFASNRYTGVPDRFTGSGFGTDFTFTISTVQAEDLAVYFCQQDYSAPWTFGGGTKLEIK
notes: also called mADP2; mouse ADP2
binds: [10] | [5] | [7]

B3: ADP13 (antibody, IgG1, V domains shown)
VH: EVQLQQSGPEMVKPGTSVKISCKASGYTFTDYYINWVKQSHGKSLEWIGDISPNIGGATYNPKFKGKAILTVDKSARTAYMELRSLTSEDSAVYCCTRGGSSYPYFYAMDYWGQGTSVTVSS
VL: DIVMSQSPSSLAVSVGEKVTMSCKSSQSLLYSSNQKKYLAWYQQKPGQSPKLLIYWASTRESGVPDRFTGSGSGTDFTLTISSVKAEDLAVYYCQQFYSYPYTFGGGTKLEINR
notes: also called mADP13; mouse ADP13
binds: [10] | [5] | [7]
